Experimental data taken from article PMC5085148.
No constants are given. Whether binding was seen depends on the method and setting. In cells and extracts the contact can be indirect. Some entries that bind do so weakly or less than the wild type.

By UniProt entry, the sequences of proteins in these tests, tags left out. Residues count along the entry.
UniProt P08581, residues 25-1390: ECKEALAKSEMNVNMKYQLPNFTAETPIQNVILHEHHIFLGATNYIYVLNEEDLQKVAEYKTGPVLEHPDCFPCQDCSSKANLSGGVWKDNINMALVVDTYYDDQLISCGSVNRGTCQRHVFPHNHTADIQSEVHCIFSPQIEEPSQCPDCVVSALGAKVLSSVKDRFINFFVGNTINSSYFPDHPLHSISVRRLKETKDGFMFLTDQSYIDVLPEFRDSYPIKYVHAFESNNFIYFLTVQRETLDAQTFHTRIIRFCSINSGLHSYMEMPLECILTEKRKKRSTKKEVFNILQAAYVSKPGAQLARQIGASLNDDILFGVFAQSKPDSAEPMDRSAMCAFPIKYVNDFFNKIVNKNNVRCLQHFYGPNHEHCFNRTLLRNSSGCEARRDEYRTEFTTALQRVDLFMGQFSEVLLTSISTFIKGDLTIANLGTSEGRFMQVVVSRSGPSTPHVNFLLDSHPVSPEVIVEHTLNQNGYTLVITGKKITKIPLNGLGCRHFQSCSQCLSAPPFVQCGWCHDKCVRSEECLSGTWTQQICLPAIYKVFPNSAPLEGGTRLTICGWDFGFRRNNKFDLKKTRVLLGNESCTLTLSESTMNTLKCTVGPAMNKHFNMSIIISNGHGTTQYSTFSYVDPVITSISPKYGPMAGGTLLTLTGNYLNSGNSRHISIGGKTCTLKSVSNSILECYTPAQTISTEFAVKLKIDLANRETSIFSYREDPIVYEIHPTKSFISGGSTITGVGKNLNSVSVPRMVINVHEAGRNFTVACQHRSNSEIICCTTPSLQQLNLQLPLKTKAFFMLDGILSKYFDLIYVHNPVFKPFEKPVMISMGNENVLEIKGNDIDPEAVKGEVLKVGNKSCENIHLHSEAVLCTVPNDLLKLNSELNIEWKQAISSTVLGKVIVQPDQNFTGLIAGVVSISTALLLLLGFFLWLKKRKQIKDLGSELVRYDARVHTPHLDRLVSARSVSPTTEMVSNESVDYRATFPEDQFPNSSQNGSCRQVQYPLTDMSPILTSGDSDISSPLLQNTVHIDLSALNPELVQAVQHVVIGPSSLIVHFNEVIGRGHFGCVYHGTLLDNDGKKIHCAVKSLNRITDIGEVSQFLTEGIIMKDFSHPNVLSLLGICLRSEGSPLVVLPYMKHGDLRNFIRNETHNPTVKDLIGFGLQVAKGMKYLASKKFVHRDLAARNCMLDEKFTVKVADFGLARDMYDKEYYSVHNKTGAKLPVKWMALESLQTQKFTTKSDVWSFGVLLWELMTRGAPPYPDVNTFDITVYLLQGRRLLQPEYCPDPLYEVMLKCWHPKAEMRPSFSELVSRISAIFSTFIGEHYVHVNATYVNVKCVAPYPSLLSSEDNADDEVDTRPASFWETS

Biological target: c-Met (hepatocyte growth factor receptor, HGFR) (human (endogenous in AGS and HGC-27)) (UniProt P08581)
Test: co-IP; lysates (RIPA buffer) of AGS and HGC-27 cells infected with Ad-PKG II and stimulated with 8-pCPT-cGMP (250 uM, 1 h; the legend adds HGF 50 ng/ml, 10 min); immunoprecipitated with anti-c-Met antibody and probed for PKG II, and with anti-PKG II antibody and probed for c-Met; isotype-matched IgG as control; 4°C

B1: type II cGMP-dependent protein kinase G (PKG II) (enzyme, UniProt Q13237 1-762)
chain: MGNGSVKPKHSKHPDGHSGNLTTDALRNKVTELERELRRKDAEIQEREYHLKELREQLSKQTVAIAELTEELQNKCIQLNKLQDVVHMQGGSPLQASPDKVPLEVHRKTSGLVSLHSRRGAKAGVSAEPTTRTYDLNKPPEFSFEKARVRKDSSEKKLITDALNKNQFLKRLDPQQIKDMVECMYGRNYQQGSYIIKQGEPGNHIFVLAEGRLEVFQGEKLLSSIPMWTTFGELAILYNCTRTASVKAITNVKTWALDREVFQNIMRRTAQARDEQYRNFLRSVSLLKNLPEDKLTKIIDCLEVEYYDKGDYIIREGEEGSTFFILAKGKVKVTQSTEGHDQPQLIKTLQKGEYFGEKALISDDVRSANIIAEENDVACLVIDRETFNQTVGTFEELQKYLEGYVANLNRDDEKRHAKRSMSNWKLSKALSLEMIQLKEKVARFSSSSPFQNLEIIATLGVGGFGRVELVKVKNENVAFAMKCIRKKHIVDTKQQEHVYSEKRILEELCSPFIVKLYRTFKDNKYVYMLLEACLGGELWSILRDRGSFDEPTSKFCVACVTEAFDYLHRLGIIYRDLKPENLILDAEGYLKLVDFGFAKKIGSGQKTWTFCGTPEYVAPEVILNKGHDFSVDFWSLGILVYELLTGNPPFSGVDQMMTYNLILKGIEKMDFPRKITRRPEDLIRRLCRQNPTERLGNLKNGINDIKKHRWLNGFNWEGLKARSLPSPLQRELKGPIDHSYFDKYPPEKGMPPDELSGWDKDF
B1 was tested, and the binding was “binds”.
